Results on nine compounds are retold here after the supplement of paper PMC10727501.

Structures are written as SMILES. The list shows a part of the results. Single values are uncertain here, since repeats match poorly.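 Researchers measured free-swimming zebrafish larvae's O-bend response probability to dark flashes (naive: first five; training: remaining flashes of four 60-flash blocks; test: later 60-flash block) and OMR turning toward alternating leftward/rightward LED motion. Six treated larvae were compared to sixty 0.1% DMSO controls, with |SSMD|≥2 marking a hit.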 Peptide text beside a SMILES is read from it. * marks the point of attachment. Cbz = O=C(OCc1ccccc1)*

Settings in all cases: 10 µM; pre-incubation: 30-90 min
Test [1] relates to Danio rerio larvae (5 dpf, TLF). Description: OMR-Perf (SSMD vs DMSO vehicle); higher = higher than vehicle (e.g. higher dark-flash O-bend response probability, or better optomotor performance).
Test [2] shares this test system. Description: Prob-Test (SSMD vs DMSO vehicle); higher = higher than vehicle (e.g. higher dark-flash O-bend response probability, or better optomotor performance).
The test system is the same in test [3]. Description: Prob-Naive (SSMD vs DMSO vehicle); higher = higher than vehicle (e.g. higher dark-flash O-bend response probability, or better optomotor performance).
Test [4] shares this test system. Description: Prob-Train (SSMD vs DMSO vehicle); higher = higher than vehicle (e.g. higher dark-flash O-bend response probability, or better optomotor performance).

With `CC(C)(Sc1cc(C(C)(C)C)c(O)c(C(C)(C)C)c1)Sc1cc(C(C)(C)C)c(O)c(C(C)(C)C)c1` [Probucol], the OMR-Perf in test [1] was -0.32. The Prob-Test in test [2] was determined as 0.373. The compound further registered a Prob-Naive in test [3] of 0.285. In test [4], this compound had a Prob-Train of 0.25.
Compound `CCS(=O)(=O)c1cccc(-c2cc(C(=O)NC3CCN(C)CC3)c(C)c3[nH]c4ncc(C)cc4c23)c1` came in with an OMR-Perf in test [1] of 1.05. The compound further displayed a Prob-Test in test [2] of 0.31. Moreover, the Prob-Naive in test [3] was -0.0487. In test [4], this compound returned a Prob-Train of 0.0617.
The corresponding values for `CC(C)[N+]1(C)C2CCC1CC(OC(=O)C(CO)c1ccccc1)C2.[Br-]` (stereo unspecified) [Ipratropium Bromide] are 0.152, -0.0189, -0.385 and -0.227.
For `C[C@@]1(c2cc(-c3cncnc3)c(F)cc2F)CCSC(N)=N1`, in test [1], the OMR-Perf is 0.211. The compound further displayed a Prob-Test in test [2] of 0.339. Also, in test [3], the Prob-Naive is -0.245. The Prob-Train in test [4] was 0.0264.
For `COc1cccc(Nc2c(C(N)=O)cnc3c(C)cc(S(=O)(=O)c4cccc(C(=O)N(C)C)c4)cc23)c1`, in test [1], the OMR-Perf is -0.414. In addition, the Prob-Test in test [2] was -0.577. In addition, the Prob-Naive in test [3] is -0.093. For the same compound, the Prob-Train in test [4] is -1.53.
As for `N[C@@H](CC(=O)N1CCn2c(nnc2C(F)(F)F)C1)Cc1cc(F)c(F)cc1F.O.O=P(=O)OO.[HH]` [Sitagliptin phosphate monohydrate], the OMR-Perf in test [1] was -0.562. The same compound displayed a Prob-Test in test [2] of 0.411. This compound also came in with a Prob-Naive in test [3] of 0.464. Also, the Prob-Train in test [4] was found to be 0.412.
`CC(C)C[C@@H](C=O)NC(=O)[C@H](CC(C)C)NC(=O)[C@H](CC(C)C)NC(=O)OCc1ccccc1` (Cbz-Leu-Leu-Leu-aldehyde) registered an OMR-Perf in test [1] of 0.109. The Prob-Test in test [2] was found to be 0.42. The Prob-Naive in test [3] was -0.301. The Prob-Train in test [4] stood at 0.0897.
In the case of `C[N+](C)(C)CCOC(N)=O.[Cl-]` [Carbachol], the OMR-Perf in test [1] is -0.000508. Besides, the Prob-Test in test [2] came to 0.217. Moreover, the Prob-Naive in test [3] was -0.362. This compound registered a Prob-Train in test [4] of 0.436.
Take `NNC(=O)c1ccncc1.Nc1ccc(C(=O)O)c(O)c1` [Pasiniazid]: the OMR-Perf in test [1] is -0.295. Besides, the Prob-Test in test [2] is -0.0373. The Prob-Naive in test [3] is -0.35. For the same compound, in test [4], the Prob-Train came out at 0.0485.
